From publication PMC5996148
Several values for one entry are separate records, joined by “and”; a condition that tells them apart may be missing. Equal entries are not always repeated. The list shows a part of the results.

Experiments:
Test in all cases: protein microarray (ProtoArray v5.0), streptavidin-Alexa Fluor 647
Conditions in all cases: 3'-biotin; 20 mM Tris (pH 7.5), 5 mM MgCl2, 100 mM KCl, 0.1% Tween-20, A/T-rich and random oligonucleotide blockers; temperature not stated; high values mean tight binding
[1] = tested on: Phosphatase and actin regulator 4 (human)
[2] = tested on: Phosphatidylinositol-3,4,5-trisphosphate 3-phosphatase and dual-specificity protein phosphatase PTEN (human)
[3] = tested on: Phosphoacetylglucosamine mutase (human)
[4] = tested on: Phosphoglucomutase-2 (human)
[5] = tested on: Phosphoglycerate mutase 1 (human)
[6] = tested on: Phosphoglycerate mutase 2 (human)
[7] = tested on: Phospholipase DDHD2 (human)
[8] = tested on: Phospholysine phosphohistidine inorganic pyrophosphate phosphatase (human)
[9] = tested on: Photoreceptor-specific nuclear receptor (human)
[10] = tested on: Phytanoyl-CoA dioxygenase domain-containing protein 1 (human)
[11] = tested on: Plasma membrane calcium-transporting ATPase 3 (human)
[12] = tested on: Plasminogen activator inhibitor 2 (human)
[13] = tested on: Pleckstrin homology domain-containing family J member 1 (human)
Podoplanin (human) = tested on: Podoplanin (human)
[14] = tested on: Polyamine-modulated factor 1 (human)
[15] = tested on: Potassium voltage-gated channel subfamily E member 1 (human)
[16] = tested on: Potassium voltage-gated channel subfamily E member 2 (human)
[17] = tested on: Pre-mRNA-splicing factor 38A (human)
[18] = tested on: Pre-mRNA-splicing factor ISY1 homolog (human)
[19] = tested on: Pregnancy-specific beta-1-glycoprotein 1 (human)

“GGGAGGCTGAGGCAGG [G4-1 biotinylated (PQS2)]” gave a binding signal [1] of -0.331 z-score, a binding signal [2] of -0.356 z-score and a binding signal [3] of -0.352 z-score. The binding signal [4] was -0.351 z-score, the binding signal [5] was -0.333 z-score and the binding signal [6] was -0.315 z-score. It also gave a binding signal [7] of -0.347 z-score, a binding signal [8] of -0.331 z-score and a binding signal [9] of -0.324 z-score. For the same sequence, the binding signal [10] was -0.303 z-score and -0.323 z-score, the binding signal [11] was -0.296 z-score and the binding signal [12] was -0.321 z-score. The binding signal [13] was -0.305 z-score, the binding signal (Podoplanin (human)) was -0.357 z-score and -0.349 z-score and the binding signal [14] was -0.358 z-score. The binding signal [15] was -0.309 z-score, the binding signal [16] was -0.307 z-score and the binding signal [17] was -0.262 z-score. It also gave a binding signal [18] of -0.364 z-score and a binding signal [19] of -0.275 z-score.
